# Binding screen against folded nucleic acids

Calls as published in the ROBIN set (doi:10.1002/anie.202211358).

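Each compound is printed as two spots on a slide made to bind it covalently, so it has no test concentration; the read-out is fluorescence of the bound, labelled oligonucleotide. The data file lists only calls. An earlier report of the laboratory on the PreQ1, TPP and SAM-II riboswitches (doi:10.1038/s41467-019-09493-3) used 1 µM RNA for 2 h and required a mean Z-score above 3 (spot signal-to-noise against the whole library), a score well above that on a control array, and duplicate spots agreeing (coefficient of variation under 100); it then also set aside compounds that hit other targets, which this list keeps. The cut-offs behind this list may differ. The calls come from the array alone, and fixing a compound to the slide can hide its binding.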
“hit” means called a hit, “none” means screened and not called a hit.
The compounds are a random part of those screened.
A dash means that no call is listed here.

Targets, with sequences 5′ to 3′:
T1: SAM-II riboswitch RNA pseudoknot, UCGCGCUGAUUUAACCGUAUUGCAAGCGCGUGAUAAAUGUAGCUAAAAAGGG. About 21,000 compounds screened, about 200 hits.
T2: TPP riboswitch RNA three-way junction, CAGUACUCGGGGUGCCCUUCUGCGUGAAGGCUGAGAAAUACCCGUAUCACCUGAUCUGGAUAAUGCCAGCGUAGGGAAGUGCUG. About 24,000 compounds screened, about 160 hits.
T3: PreQ1 riboswitch RNA pseudoknot, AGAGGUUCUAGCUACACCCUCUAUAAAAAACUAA. From B. subtilis. About 24,000 compounds screened, about 170 hits.

Compound	T1	T2	T3
c1ccc(CNc2nc3ccccc3c3nc(-c4cccnc4)nn23)nc1	-	none	none
COCCCNC(=O)c1nn(-c2ccc(Cl)cc2)nc1CO	-	none	none
CN(CC1CC(=O)N(C2CCCC2)C1)C1CCC2(CCNCC2)CC1 (centres undefined)	none	none	none
N#CC1=C(N)Oc2cc(N)ccc2C1c1ccc(Br)s1 (centres undefined)	none	none	none
Nc1nc(N)nc(-c2ccc([N+](=O)[O-])cc2)n1	none	none	none
N[C@H]1CN(c2c(F)cc3c(=O)c(C(=O)O)cn(C4C[C@H]4F)c3c2Cl)CC12CC2 (some centres undefined)	none	none	none
CC(=O)Nc1ccc(-c2ccccc2CN2CCNCC2)cc1	none	none	none
COc1cccc(-n2nnc(-c3nc(-c4ccncc4)no3)c2N)c1	-	none	none
CCC(O)Cn1nc(-c2ccncc2)nc1-c1ccc(=O)[nH]c1 (centres undefined)	none	none	none
CC(C)(O)CCc1ccc(C(=O)N2C[C@H](O)[C@@H](N3CCCCC3)C2)cc1	none	none	none
COC(=O)C1=C(N)OC2=C(C(=O)CCC2)C1c1ccc(Cl)cc1 (centres undefined)	none	none	none
C=CCSc1nc(N)c2c3c(sc2n1)CCCC3	none	none	none
CCCSc1nc(N)cc(=O)[nH]1	none	none	none
O=C(O)C(Cc1ccc(O)cc1)NC1CCS(=O)(=O)C1 (centres undefined)	none	none	none
Cc1cc(Cn2ccnc2-c2cc3n(n2)CCNC3)c(C(F)(F)F)o1	none	none	none
O=C(c1ccccc1)N1CCC(NCCN2CCC(c3ccccc3)C2)CC1 (centres undefined)	none	none	none
COC(=O)c1cc2c(n1S(=O)(=O)c1ccc(C)cc1)C(=O)C(=O)c1[nH]cc(C(=O)OCc3ccccc3)c1-2	none	none	none
CCOC(=O)c1c(N)nc2n1CCCCC2	none	none	none
Cc1nn(-c2ccccc2)c2c1C(c1ccc([N+](=O)[O-])cc1)C(C#N)=C(N)O2 (centres undefined)	none	none	none
O=C(c1ccccc1-c1nnn[nH]1)N1CCOCC(O)C1 (centres undefined)	none	none	none
Fc1ccc(Nc2nc(-c3ccc(F)cc3)cs2)cc1	none	none	none
CCOC(=O)C1=C(N)OC(C)=C(C(C)=O)C12C(=O)Nc1ccccc12 (centres undefined)	none	none	none
COc1cc(C2CC(=O)Nc3nc(N)[se]c32)cc(OC)c1O (centres undefined)	none	none	none
O=C(Nc1ccc(F)cc1F)c1cccc(S(=O)(=O)N2CC(O)C2)c1	none	none	none
COC(=O)C1=C(N)Oc2[nH]nc(-c3ccccc3)c2C12C(=O)N(C)c1ccccc12 (centres undefined)	none	none	none
CCN(CC(O)Cn1c2ccccc2c2ccccc21)S(=O)(=O)c1ccc(C)cc1 (centres undefined)	none	none	none
CC(=O)Nc1ccc(OCC(O)Cn2cnc3ccccc32)cc1 (centres undefined)	none	none	none
Cc1ccc(-c2noc(-c3cccnc3NC(C)c3ccc(C)cc3)n2)cc1 (centres undefined)	-	none	none
N=C(N)NC(=S)Nc1ccc(Cl)cc1	hit	none	none
NC(=O)C1=C(NCCOc2ccccc2)c2ccccc2S1(=O)=O	-	none	none
OCC1(CO)COC2(CCN(Cc3ccccc3)CC2)N1	none	none	none
OCCOCCN1CCN(Cc2cc(O)c3cccc(F)c3n2)CC1	none	none	none
COc1ccc(-c2c(C)nn3c(NCc4ccc(Cl)cc4)cc(C)nc23)cc1OC	none	none	none
CC(C)C(=O)c1ccc(O)c(O)c1	none	none	none
Cc1cccc(-c2cc(Nc3ccccc3Cl)nc(C)n2)c1	-	none	none
COc1ccc(NCCCC(=O)NN=Cc2ccco2)cc1	none	none	none